# From PubChem BioAssay AID504848 (National Center for Advancing Translational Sciences (NCATS), 2011)
# About 1,400 (61%) of roughly 2,300 compounds were called active. So high a share suggests a set chosen from earlier hits. This list was built around the results that the source calls inconclusive (neither active nor inactive); the mix of calls is not that of the screen. Calls follow the shape of the dose curve; as a rule, active = well fitted inhibition curve with a large enough effect; inconclusive = small, poorly fitted or top-dose-only effect, or effect the other way; inactive = no such curve, though single readings can be large or run the other way. Potencies beside an inconclusive call are fits to weak or partial responses and may not hold up.
# Assay: Confirmation screen for delayed death inhibitors of the malarial parasite plastid, 96 hour incubation; also: nearly all actives have a fitted effect of over 60% in size
# Conditions: P. falciparum luciferase growth in erythrocytes; series mostly up to 28.7 µM; activity change, negative = inhibition: at the top concentration
# Procedure, shortened: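 Erythrocytes infected with luciferase-expressing P. falciparum (2% hematocrit, 0.1% parasitemia final) in RPMI 1640 with 0.5% Albumax, exposed to compounds 96 h at 37 C, 5% CO2. Growth inhibition read as decreased luciferase luminescence.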
# % is scaled to controls: 0 for no effect and ±100 for the full control effect; potency is read from the fitted curve at half-maximal effect.
SMILES,Potency,"activity change, negative = inhibition"
N#CCCn1nc(-c2ccc(Cl)cc2)cc1Nc1ccccc1NC(=O)C(F)(F)F,"inconclusive: 17.8 µM [activator, single point]",
COc1ccc(NC(=O)CCCn2cc([N+](=O)[O-])cn2)cc1,,inactive: -11.8%
Cc1[nH]c2ccccc2c1/C=N/NC(=O)CNC(=O)Cc1ccccc1,,inactive: -7.72%
O=C(NCCN1CCN(c2ccc([N+](=O)[O-])cc2)CC1)NCc1ccccc1,active: 12.6 µM,
CC(NC(=O)c1ccc(Cl)cc1)C1CC2CCC1C2 (configuration not stated),"inconclusive: 12.6 µM [inhibitor, partial curve]",
O=C(CCN1C(=O)S/C(=C\c2ccccc2)C1=O)NC1CCS(=O)(=O)C1 (configuration not stated),"inconclusive: 0.562 µM [inhibitor, full curve, poor fit]",
COc1ccccc1CCNC(=O)CCn1nc(C)c2c(C)n(-c3ccccc3)nc2c1=O,active: 7.94 µM,
Clc1ccc(CNc2ccc(N3CCN(Cc4ccccc4)CC3)cc2)cc1,"inconclusive: 15.8 µM [inhibitor, single point]",
CCc1c(C)nc2nc(SCc3ccccc3Cl)[nH]n2c1=O,"inconclusive: 0.631 µM [inhibitor, full curve, poor fit]",
COC(=O)CSc1nc2c(c(-c3ccco3)c1C#N)CCCC2,"inconclusive: 12.6 µM [inhibitor, partial curve, poor fit]",
COc1cccc(CN(C)C(=O)c2ccc(N3CCCC3)c([N+](=O)[O-])c2)c1,"inconclusive: 11.2 µM [inhibitor, partial curve, poor fit]",
Cc1ccc(C)c(SCc2noc(C(=O)NC(C)C)c2C(=O)O)c1,"inconclusive: 8.91 µM [inhibitor, partial curve, poor fit]",
CC(=O)c1c(C)cc(C)c(CSc2nc(C)cc(=O)[nH]2)c1C,,inactive: -38.6%
O=C(/C=C/c1cccc(O)c1)c1ccc(N2CCOCC2)cc1,"inconclusive: 12.6 µM [inhibitor, partial curve, poor fit]",
CC1(C)CC(=O)c2sc(NC(=O)CCS(=O)(=O)c3ccccc3)nc2C1,"inconclusive: 12.6 µM [inhibitor, partial curve]",
Cc1ccc(C)c(N2CCN(S(=O)(=O)c3ccc4c(c3)NC(=O)CO4)CC2)c1,"inconclusive: 3.98 µM [inhibitor, partial curve, poor fit]",
COc1ccccc1C1N(c2ccc(Cl)cc2)C(=O)C2CCCN21 (configuration not stated),"inconclusive: 8.91 µM [inhibitor, full curve, poor fit]",
COc1ccc(CCNC(=O)C2CCN(S(=O)(=O)c3ccc(OC)cc3)CC2)cc1,"inconclusive: 10 µM [inhibitor, partial curve]",
CSc1ccccc1OCc1cc(C(=O)N2C[C@H]3CC[C@H]2C3)no1,"inconclusive: 12.6 µM [inhibitor, partial curve, poor fit]",
CN(CC1CCCN(CCc2cccc(C(F)(F)F)c2)C1)C(=O)c1ccco1 (configuration not stated),"inconclusive: 15.8 µM [inhibitor, single point]",
CCCN1CCC(NC(=O)CC2C(=O)NCCN2Cc2cccc(OC)c2)CC1 (configuration not stated),,inactive: -2.53%
CC(C)(C)C(=O)Nc1sc(-c2ccccc2)cc1C(=O)O,"inconclusive: 12.6 µM [activator, partial curve]",
NNC(=O)CSc1nc(-c2ccccc2)cn1-c1ccccc1,"inconclusive: 17.8 µM [inhibitor, single point]",

SMILES,Potency,"activity change, negative = inhibition"
COc1ccc([N+](=O)[O-])c(S(=O)(=O)c2ccccc2)n1,"inconclusive: 20 µM [inhibitor, partial curve, poor fit]",
CCCOc1ccc(Cc2nc(N)nc(N)n2)cc1,"inconclusive: 2.82 µM [inhibitor, partial curve]",
Cc1cc(NC(=O)COC(=O)c2c(Cl)cccc2Cl)no1,,inactive: -11.4%
Cc1cnc(CNC(=O)c2ccc3oc(Cc4ccc(Cl)cc4)nc3c2)cn1,active: 12.6 µM,
COCCN(C(=O)c1ccccc1F)c1nnc(-c2ccc(OC)cc2)s1,active: 7.08 µM,
CCOC(=O)Cn1nnnc1C(CC)N(Cc1cccs1)Cc1cc2ccc(OC)cc2[nH]c1=O (configuration not stated),active: 12.6 µM,
CCOC(=O)C(=Cc1ccc(-n2ccnc2)cc1)C(=O)OCC,"inconclusive: 11.2 µM [inhibitor, partial curve, poor fit]",
COc1ccccc1OCCCOc1cccc(/C=C2\SC(=O)NC2=O)c1,active: 11.2 µM,
CCOC(=O)c1c(C)[nH]c(C(=O)Nc2cc(OCC)c(N3CCOCC3)cc2OCC)c1C,active: 2.51 µM,
CCOC(=O)c1c[nH]c2cc(OCC(C)C)c(OCC(C)C)cc2c1=O,active: 0.178 µM,
Cc1nc(SC(C)C(=O)NC2CCCCC2C)c2c(C)c(C)sc2n1 (configuration not stated),"inconclusive: 11.2 µM [inhibitor, partial curve]",
CCOC(=O)C1(Cc2cccc(Cl)c2)CCCN(C(=O)C(C)(C)C)C1 (configuration not stated),active: 15.8 µM,
CSCCn1c(C(C)(C)C)cc(C(=O)O)c1C,,inactive: 17%
O=S(=O)(c1cccs1)N1CCC(CO)(Cc2cccc(F)c2)CC1,"inconclusive: 17.8 µM [inhibitor, partial curve, poor fit]",
COC(=O)c1scc(C)c1S(=O)(=O)Nc1ccc(C)cc1,"inconclusive: 14.1 µM [inhibitor, single point]",
CC(=O)Nc1cccc(C(=O)/C=C/c2ccc(Br)cc2)c1,"inconclusive: 15.8 µM [inhibitor, single point]",
Cc1ncoc1C(=O)NC1CC(C)(C)Cc2c1cnn2-c1ccc(F)cc1 (configuration not stated),"inconclusive: 15.8 µM [inhibitor, partial curve, poor fit]",
C=C(C)n1c(=O)n(Cc2ccccc2C)c2ccccc21,"inconclusive: 15.8 µM [inhibitor, partial curve, poor fit]",
CN(c1ccc(OCC(=O)Nc2ccccc2C(=O)O)cc1)S(=O)(=O)c1ccc(Cl)cc1,"inconclusive: 12.6 µM [inhibitor, partial curve]",
O=C(Nc1ccc(S(=O)(=O)NCc2ccco2)cc1)c1ccc2ccccc2n1,active: 12.6 µM,
COC(=O)c1ccc(NC(=O)C[n+]2ccccc2)cc1,"inconclusive: 10 µM [inhibitor, partial curve]",
COc1ccccc1CN1CCCC(CN(CCN(C)C)C(=O)c2ccc(C)cc2)C1 (configuration not stated),"inconclusive: 0.631 µM [inhibitor, partial curve, poor fit]",
c1ccc(Cn2nnc3c(N4CCCCCC4)ncnc32)cc1,"inconclusive: 0.708 µM [inhibitor, full curve, poor fit]",

# Compounds shown so far that contain a furan ring, fused or not, in the order listed:
SMILES,Potency,"activity change, negative = inhibition"
COC(=O)CSc1nc2c(c(-c3ccco3)c1C#N)CCCC2,"inconclusive: 12.6 µM [inhibitor, partial curve, poor fit]",
CN(CC1CCCN(CCc2cccc(C(F)(F)F)c2)C1)C(=O)c1ccco1 (configuration not stated),"inconclusive: 15.8 µM [inhibitor, single point]",
O=C(Nc1ccc(S(=O)(=O)NCc2ccco2)cc1)c1ccc2ccccc2n1,active: 12.6 µM,

# More structures follow.

SMILES,Potency,"activity change, negative = inhibition"
CCCOc1cc(N)ccc1C(=O)OCCN(CC)CC,"inconclusive: 10 µM [inhibitor, single point]",
COc1ccccc1NC(=O)c1ccc(S(=O)(=O)NCc2ccco2)cc1,"inconclusive: 7.08 µM [inhibitor, partial curve, poor fit]",
O=C(COC(=O)C1C2CC3OC(=O)C1C3C2)Nc1ccccc1 (configuration not stated),,inactive: -15.9%
Cc1cc(C)cc(-n2c3nc4ccccc4nc3c3c(=O)n(Cc4ccco4)cnc32)c1,"inconclusive: 17.8 µM [inhibitor, partial curve]",
COc1ccc(N/C=C2/CCCCC2=O)cc1,"inconclusive: 12.6 µM [inhibitor, single point]",
CC(C)(C)Nc1nc(Cl)nc(NC2CCCCC2)n1,active: 12.6 µM,
COc1ccc(C(=O)CSc2nc3ccc([N+](=O)[O-])cc3[nH]2)cc1,"inconclusive: 14.1 µM [inhibitor, single point]",
CCCN(CCC)S(=O)(=O)c1ccc(C(=O)NCc2ccco2)cc1,"inconclusive: 8.91 µM [inhibitor, partial curve, poor fit]",
CCn1c(SCC(=O)N2CCCCCC2)nc2c(c1=O)SCC2,"inconclusive: 12.6 µM [inhibitor, partial curve, poor fit]",
CCC(C)[C@H](NC(=O)NCCCOC(C)C)C(=O)OC (some centres not stated),,inactive: -4.01%
CCN(Cc1ccccc1)C(=O)CSc1ncn[nH]1,"inconclusive: 15.8 µM [inhibitor, single point]",
CC(=O)c1c(C)[nH]c(C(=O)COC(=O)COc2ccccc2F)c1C,,inactive: -8.16%
Cc1ccc(N2CC(O)(c3cccs3)[N+]3=C2CCCC3)cc1 (configuration not stated),"inconclusive: 14.1 µM [inhibitor, partial curve, poor fit]",
Cc1cc(=O)n2nc(N3CCCC(C(=O)NCc4ccc(Cl)cc4)C3)sc2n1 (configuration not stated),active: 11.2 µM,
COc1ccc(CCNC(=O)/C(=C/c2cccnc2)NC(=O)c2ccccc2)cc1OC,"inconclusive: 11.2 µM [inhibitor, partial curve]",
CCOc1ccc(/C=C2\SC(=S)N(C(C(=O)O)c3ccccc3)C2=O)cc1OC (configuration not stated),,inactive: -7.03%
Cc1cccc(C(=O)N2CCCC(CCC(=O)N3CCN(c4ccccn4)CC3)C2)c1 (configuration not stated),"inconclusive: 11.2 µM [inhibitor, partial curve, poor fit]",
Cc1cc(C)cc(NC(=O)c2cc(S(=O)(=O)NCc3ccco3)ccc2F)c1,,inactive: -53.2%
O=c1c2ccccc2nc(-c2ccoc2)n1CCc1ccccc1,"inconclusive: 12.6 µM [inhibitor, partial curve]",
CC(=O)c1ccc(OCC(=O)Nc2cccc(S(=O)(=O)N3CCCC3)c2)cc1,"inconclusive: 14.1 µM [inhibitor, partial curve, poor fit]",
CCOc1ncccc1C(=O)Nc1ccc(-c2cn3ccsc3n2)cc1,"inconclusive: 0.0355 µM [inhibitor, full curve, poor fit]",
